According to paper PMC6976901 (Toxicology Reports, 2020):

Experiments:
[1] = fraction absorbed, oral; cited from earlier work
in vitro = conditions: human, Caco-2

Papp (in vitro): 42.4 ± 4.4 ×10⁻⁶ cm/s
Structure (SMILES): COC(=O)C1=C(C)NC(C)=C(C(=O)OC)C1c1ccccc1[N+](=O)[O-] [nifedipine, reference compound]
reported human Fa [1]: 100 [8] %
